In all, about 1,200 compounds went through this assay and fewer than 10 were called active. The call rests on the fitted dose curve; in most records, active means well fitted curve in the direction sought with a large enough effect; inconclusive means small, poorly fitted or top-dose-only effect, or another doubt; inactive means no such curve, though single readings can be large or run the other way. This is one part of the list.
Experiment: Confirmatory qHTS assay for inhibitors of Activation Induced Cytidine Deaminase (AID): UDG signals; further: 0% is about no effect
Details: UDG coupled enzyme activity counter-screen; at 115 µM (top of the series)
Text: Assay Provider (PI) Patricia Gearhart Ph.D.
National Institute on Aging
National Institute of Health (NIH), Bethesda, MD
Assay Provider (PI) Rahul Kohli Ph.D.
Perelman School of Medicine
University of Pennsylvania, Philadelphia, PA
Activation-Induced Deaminase (AID) is a cytosine deaminase which converts cytosine into uracil within stretches of ssDNA. The presence of uracil in DNA initiates a cascade of mutagenic DNA repair to introduce point mutations and DNA double strand breaks. Specific targeting of AID to the immunoglobulin heavy chain loci (Igh) promotes mutagenesis in the antibody variable region for somatic hypermutation (SHM) or switch regions leading to class switch recombination (CSR). However, AID also plays a role in accumulating unnecessary mutations across the genome. Mis-targeting of AID results in the initiation of tumor development and leads to greater drug resistance among cancer cells when continually expressed. To identify an AID inhibitor, a small molecule library will be screened in collaboration with NCATS core facility at NIH. To confirm biological function, inhibitors will be examined in an in vitro murine B-cell activation assay and subsequent secondary validation screens. Top molecules will be further screened to identify inhibitory efficacy against a wild type primary splenocytes assay. Using these approaches, we hope to identify a small molecule with great efficacy and low toxicity for use as a molecular probe to further characterize AID's intricacies, or even as a therapeutic.
A FRET based analysis of cytosine deamination, was developed to identify potential inhibitors of AID catalytic activity. This screen has two signal output, Read 1 evaluates the AID inhibition response. The second readout (Read 2) evaluates UDG response and is uses as a counterscreen to exclude false positive inhibitors. Inhibition in AID and inactivity in the UDG signal is the desired outcome for this assay.
SEQUENCE No. (e.g., 1, 2, 3, etc.); […] (e.g., Cells, Incubation, Reagent, etc.); VALUE; DESCRIPTION
1a; Reagent; 3 uL; [4/3x] 1 uM AID/2.67 U/mL UDG
1b; Reagent; 3 uL; 2 U/mL UDG
1c; Reagent; 3 uL; 1 uM AID
2a; Compound; 46 nL; Follow-up plates (0.64 uM - 10 mM)
2b; Control; 46 nL; ATA ([…] - 10 mM)
3; Time; 10 min; incubation at room temperature
5; Time; 4 hr; incubation at room temperature
6; Reagent; 4 uL; [2x] 250 mM NaOH
7; Time; 15 sec; centrifuge at 1000 rpm
8; Time; 30 min; incubation at room temperature
9a; Detection; fluorescence (Read 1: AID); EnVision (PerkinElmer) plate reader, 540 excitation and 590 emission filters
9b; Detection; fluorescence (Read 2: UDG); EnVision (PerkinElmer) plate reader, 560 excitation and 665 emission filters
NOTES (numbers refer to sequence above)
1a; Reagents were dispensed in a medium-binding black solid-bottom Greiner plates (789176F) using a BioRptr liquid dispenser. Dispense 3 uL of [4/3x] 1 uM AID (provided by Kohli lab) and [4/3x] 2 U/mL UDG (NEB M0280L) into columns 1, 2, 5 to 48.
1b; Dispense 3 uL of [4/3x] 2 U/mL UDG into column 3.
1c; Dispense 3 uL of [4/3x] 1 uM AID into column 4.
2a; Compound (7-points [uM]: 0.64; 3.2; 16; 80; 400; 2,000; 10,000; […]) double pin-transferred (Dip Factor = 2) using the Kalypsys (Wako USA) pintool equipped with a 1536 pinhead for a final concentration range of 7.32 nM - 114 uM.
2b; 10 mM Aurintricarboxylic Acid (Sigma A1895) (ATA, 8-point, n = 2, 1:2.5 dilution in column 2) double pin-transferred (Dip Factor = 2) using the Kalypsys (Wako USA) pintool equipped with a 1536 pinhead for a [final] range of 186 nM - 114 uM.
3; Room temperature incubation.
4; Dispense 1 uL of substrate mixture from the Kohli lab [4x] […] DJC20 and [4x] 250 nM DJC23 into columns 1 to 48 .
5; Room temperature incubation.
6; Dispense 4 uL of substrate mixture [2x] 250 mM NaOH into columns 1 to 48.
7; Centrifugation step to remove bubbles.
8; Room temperature incubation
9a; Fluorescence signal (column label AID) was read using the EnVision plate reader. […]
For Cc1cccc(CN2C(=O)CN=C(c3ccccc3)c3cc(Cl)ccc32)c1, the activity change, negative = inhibition was inactive: -1.23%. In the case of O=S1(=O)N(CCN2CC=C(c3c[nH]c4cc(F)ccc34)CC2)c2cccc3c2N1CCC3, the activity change, negative = inhibition is reported as inactive: 9.84%. For Cc1ccccc1CN1C(=O)CN=C(c2ccccc2)c2cc(Cl)ccc21, the activity change, negative = inhibition was inactive: 0.914%. With Cc1c(C(c2ccc(Cl)cc2Cl)c2c(O)c3ccccc3oc2=O)c(=O)n(-c2ccccc2)n1C (centres undefined) the activity change, negative = inhibition was inactive: 4.62%. With CC(=O)c1c(O)c(C)c(O)c(Cc2c(O)c3c(c(C(=O)/C=C/c4ccccc4)c2O)OC(C)(C)C=C3)c1O the activity change, negative = inhibition was inactive: -5.22%. For Cc1cccc(-c2nc(CN3C(=O)CN=C(c4ccccc4)c4ccccc43)c(C)o2)c1, the activity change, negative = inhibition was inactive: -4.83%. In the case of CCCCC/C=C\C/C=C\C/C=C\C/C=C\CCCC(=O)NCC(=O)O, the activity change, negative = inhibition is reported as inactive: 3.6%. With O=C(Nc1cc(C(F)(F)F)cc(C(F)(F)F)c1)c1cccn(Cc2ccccc2Cl)c1=O the activity change, negative = inhibition was inactive: -5.52%. With CN1CC[C@@]2(C)c3cc(O)ccc3N(C)C12 (some centres undefined) the activity change, negative = inhibition was inactive: -4.53%. For O=C(c1ccc2c(c1)N(Cc1ccc(F)cc1)C(=O)c1ccccc1S2)N1CCC2(CC1)OCCO2, the activity change, negative = inhibition was inactive: -0.573%. For COc1ccc2c(c[n+](C)c3c4cc5c(cc4ccc23)OCO5)c1OC, the activity change, negative = inhibition was inactive: -23.3%. With Cc1ccccc1CN1C(=O)C(C)N=C(c2ccccc2)c2ccccc21 (centres undefined) the activity change, negative = inhibition was inactive: -4.34%. In the case of CCCC1=Nc2cc(C(=O)NCCCN(CC)CC)ccc2Sc2ccccc21, the activity change, negative = inhibition is reported as inactive: 0.887%. In the case of CN(N=O)c1cc(O)ccc1O, the activity change, negative = inhibition is reported as inactive: -4.44%. With NC(Cc1cc(O)c(O)cc1O)C(=O)O (centres undefined) the activity change, negative = inhibition was inactive: 3.19%. In the case of CN(N=O)c1ccc(O)c(O)c1, the activity change, negative = inhibition is reported as inactive: -8.61%. In the case of COc1cc(C(c2c(O)c3ccccc3oc2=O)c2c(C)n(C)n(-c3ccccc3)c2=O)ccc1O (centres undefined), the activity change, negative = inhibition is reported as inactive: -3.72%. For Cc1ccc(NC(=O)N(Cc2ccc3c(c2)OCO3)C2CCN(Cc3ccccc3)CC2)cc1C, the activity change, negative = inhibition was inactive: -16%. For NCC(O)c1cc(O)c(O)cc1F (centres undefined), the activity change, negative = inhibition was inactive: -4.02%.

From PubChem BioAssay AID1347431 (National Center for Advancing Translational Sciences (NCATS), 2020)
